The source of these data is PubChem BioAssay AID662 (National Center for Advancing Translational Sciences (NCATS), 2007).

This is one part of the list. Further columns of the screen follow, without active or inactive calls. Most of these compounds were active or inconclusive in the main read-out, so they are no random draw. Potencies come from curve fits of mixed quality, noted in brackets.

This assay is described as follows: Cell signaling CRE-BLA (Fsk stim). Particulars: CHO CRE-bla reporter (cAMP response element driving beta-lactamase), forskolin EC10, beta-lactamase ratio; measured here: 460 nm blue channel. Put shortly:
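qHTS titration format; CRE-bla CHO reporter; stimulus EC10 NKH 477, a water-soluble forskolin. Read: CCF4 460/530 nm ratio. Potency expressed as AC50 for activators or inhibitors.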
Regarding `COc1cc(C(=O)Nc2cc(C)ccn2)cc(OC)c1OC`, the AC50 is 15.8 µM [rising, single point]. Under `Cc1nn(-c2ccc(F)cc2)c2sc(C(=O)O)cc12` stands 3.16 µM [rising, full curve]; under `Cc1nn(Cc2ccc(Cl)cc2)c(C)c1NC(=O)c1cc(-c2ccc3c(c2)OCO3)on1`, 10 µM [rising, partial curve]; under `COCCCn1c(=S)[nH]c2ccc(N3CCOCC3)cc2c1=O`, 25.1 µM [rising, single point].

Consider `N#CCCn1c(=O)c(-c2cccc(C#N)c2)nc2cnc(N3CCOCC3)nc21`, for which the half-maximal activity concentration (AC50) is 3.16 µM [rising, partial curve]. Under `Nc1ncnc2c1nc(Sc1ccc(Cl)cc1)n2[C@@H]1O[C@H]2COP(=O)(O)O[C@@H]2[C@H]1O` stands 25.1 µM [rising, single point]; under `O=c1c(CCc2ccccc2)nc2cnc(Nc3ccccc3)nc2n1Cc1cccs1`, 1.58 µM [rising, partial curve]; under `CCOc1cc(C2C(C(=O)c3ccco3)=C(O)C(=O)N2CCc2ccccc2)ccc1O` (stereo not drawn), 31.6 µM [falling, partial curve]. Next, `Cc1ccc(C)c(N2CCN(C(=O)CCCCn3c(=O)[nH]c4ccccc4c3=O)CC2)c1`: 12.6 µM [rising, partial curve]. Next, `COc1ccc(-c2cc(C(=O)OCC(=O)N(C)C)c3ccccc3n2)cc1`: 10 µM [rising, partial curve]; `CN1[C@H](CC(=O)c2ccccc2)CCC[C@H]1C[C@@H](O)c1ccccc1`: 31.6 µM [falling, single point]; `COc1ccccc1CNc1ncnc2ccc(-c3ccccc3OC)cc12`: 20 µM [falling, single point].

Take `c1ccc(-n2nnc3c(N4CCOCC4)ncnc32)cc1`: the half-maximal activity concentration (AC50) was 10 µM [rising, single point].

With `O=C1c2ccccc2C(=O)N1CCc1nc2ccccc2c(=O)n1CCCn1ccnc1`, the AC50 was 12.6 µM [rising, partial curve]. Next, `CC(C)(C)c1cc(C(=O)O)nn1-c1ccccc1`: 25.1 µM [falling, single point]; `Cc1nnc(SCC(=O)Nc2ccc3c(c2)OCCO3)n1CC1CCCO1` (stereo not drawn): 15.8 µM [falling, single point].

Take `CC1CN(c2ncnc3c2oc2ccccc23)CC(C)O1` (stereo not drawn): the concentration at half-maximal activity (AC50) is 7.94 µM [rising, partial curve]. Under `COc1cc(C(=O)N(Cc2cc3cc(C)ccc3[nH]c2=O)CC2CCCO2)cc(OC)c1OC` (stereo not drawn) stands 0.794 µM [falling, partial curve].

Usually AC50 stands for the midpoint of the concentration-response curve, whichever way the signal moves.
